Experimental findings from patent US11192849B2, “Compounds, compositions, and methods for modulating ferroptosis and treating excitotoxic disorders” (THE TRUSTEES OF COLUMBIA UNIVERSITY IN THE CITY OF NEW YORK, priority 2013, dated 2021) are described below.

For the data set, the system named is mice, IRI of the cremaster muscle. Nature of the data set: In vivo microscopy on the postischemic cremaster muscle. Also on record: species or system mouse. The method, then: The surgical preparation of the cremaster muscle was performed as originally described by Baez with minor modifications (Traykova-Brauch et al., 2008; Mulay et al., 2013). Mice were anesthetized using a ketamine/xylazine mixture (100 mg/kg ketamine and 10 mg/kg xylazine), administrated by i.p. injection. The left femoral artery was cannulated in a retrograde manner for administration of microspheres and drugs. The right cremaster muscle was exposed through a ventral incision of the scrotum. The muscle was opened ventrally in a relatively avascular zone, using careful electrocautery to stop any bleeding, and spread over the transparent pedestal of a custom-made microscopic stage. Epididymis and testicle were detached from the cremaster muscle and placed into the abdominal cavity. Throughout the procedure as well as after surgical preparation during in vivo microscopy, the muscle was superfused with warm-buffered saline.
The setup for in vivo microscopy was centered around equipment for stroboscopic fluorescence epiillumination microscopy. Light from a 75-W xenon source was narrowed to a near monochromatic beam of a wavelength of 700 nm by a galvanometric scanner (Polychrome II; TILL Photonics) and directed onto the specimen via an FITC filter cube equipped with dichroic and emission filters (DCLP 500, LP515; Olympus). Microscopy images were obtained with Olympus water immersion lenses (20×/numerical aperture (N.A.) 0.5 and 10×/N.A. 0.3) and recorded with an analog black-and-white charge-coupled device (CCD) video camera (Cohu 4920; Cohu) and an analog video recorder (AG-7350-E; Panasonic). […] For measurement of centerline blood flow velocity, green fluorescent microspheres (2-μm diameter; Molecular Probes) were injected via the femoral artery catheter, and their passage through the vessels of interest was recorded using the FITC filter cube under appropriate stroboscopic illumination (exposure, 1 ms; cycle time, 10 ms; length of the electromagnetic wave, 488 nm), integrating video images for sufficient time (>80 ms) to allow for the recording of several images of the same bead on one frame. […]
For off-line analysis of parameters describing the sequential steps of leukocyte extravasation, Cap-Image image analysis software (Dr. Zeintl Biomedical Engineering) was used. Rolling leukocytes were defined as those moving slower than the associated blood flow and were quantified as described previously (Mulay et al., 2013). Firmly adherent cells were determined as those resting in the associated blood flow for more than 30 s and related to the luminal surface per 100-μm vessel length. Transmigrated cells were counted in regions of interest (ROI), covering 75 μm on both sides of a vessel over a 100-μm vessel length. […]

[1] abbreviates: ferrostatin-1 2 mg/kg i.p. 30 min before.

Consider `CCOC(=O)c1ccc(NC2CCCCC2)c(N)c1` [SRS8-28 (Fer-1), ethyl 3-amino-4-(cyclohexylamino)benzoate], for which, under setting [1], the “Shear rate” value worked out at 1272.0 ± 167.3 s⁻¹ and the “Vmean (mm^−1 s^−1)” value is given as 0.8 ± 0.2 mm^−1 s^−1. Moreover, the “Inner diameter (μm)” value (ferrostatin-1 2 mg/kg i.p. 30 min before, postcapillary venules) was found to be 25.9 ± 1.6 μm. In addition, the “SLC (n × 10^−8/μl)” value (systemic leukocyte counts, ferrostatin-1 2 mg/kg i.p.) amounted to 1.6 ± 1.5 n × 10^−8/μl.
